Results taken from article PMC10367554.

Amino acid sequences for entries named in this document (tags omitted).
UniProt Q04695: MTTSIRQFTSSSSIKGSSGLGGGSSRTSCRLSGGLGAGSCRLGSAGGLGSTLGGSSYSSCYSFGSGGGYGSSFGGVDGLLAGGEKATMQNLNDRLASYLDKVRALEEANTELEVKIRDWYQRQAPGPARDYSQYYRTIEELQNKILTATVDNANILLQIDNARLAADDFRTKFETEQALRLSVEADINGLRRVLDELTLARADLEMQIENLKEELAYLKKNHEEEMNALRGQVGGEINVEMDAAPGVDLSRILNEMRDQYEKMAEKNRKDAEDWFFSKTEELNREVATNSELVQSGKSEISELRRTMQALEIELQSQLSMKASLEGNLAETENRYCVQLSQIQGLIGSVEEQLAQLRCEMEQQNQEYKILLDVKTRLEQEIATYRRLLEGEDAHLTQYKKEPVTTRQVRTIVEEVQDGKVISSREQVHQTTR
UniProt P06733: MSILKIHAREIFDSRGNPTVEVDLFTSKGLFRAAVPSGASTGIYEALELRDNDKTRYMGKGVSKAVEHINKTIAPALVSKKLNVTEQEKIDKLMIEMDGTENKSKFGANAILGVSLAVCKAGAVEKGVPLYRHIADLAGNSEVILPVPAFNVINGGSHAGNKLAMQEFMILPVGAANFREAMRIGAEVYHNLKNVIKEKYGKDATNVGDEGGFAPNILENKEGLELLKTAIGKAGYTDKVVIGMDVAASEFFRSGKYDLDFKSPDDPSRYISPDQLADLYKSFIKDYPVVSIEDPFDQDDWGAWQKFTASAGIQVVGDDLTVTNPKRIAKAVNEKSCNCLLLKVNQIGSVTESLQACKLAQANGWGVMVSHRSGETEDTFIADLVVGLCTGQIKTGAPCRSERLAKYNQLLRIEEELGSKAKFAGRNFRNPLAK

Molecular target: Keratin 17, overexpressed in K17-overexpressing KCs (UniProt Q04695)
Experiment: affinity purification with mass spectrometry; Co-IP combined with mass spectrometry in K17-overexpressing KCs

binding: binds
Substance: α-enolase (from UniProt P06733 1-434) (enzyme)

These are yes or no findings as the source states them, for the method shown. Binding seen in cells or lysates may run through a third protein. These calls come from enrichment with a bait or labelling near it, and not all partners need be listed.
